PubChem BioAssay AID602196, INSERM | 2012

Purpose: 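Knock-downs that protect lung cancer cells from cisplatin or sensitise them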
Cell system: human A549 lung cancer cells
Knock-down reagent: siRNA pair against human genes
Timing: 48 h transfection before cisplatin; time from cisplatin to read-out not stated
Challenge: cisplatin at a dose killing half of control-siRNA cells; exact dose and duration not given
Detection: 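Shift in cisplatin death relative to control siRNA, from -50 (all cells die) to +50 (no cells die); siRNAs harmful on their own scored 0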
Direction: two-siRNA summed score (-2 to +2): higher = both siRNAs protect from cisplatin killing; -2 means both sensitise
Call rule: 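siRNAs harmful alone (LDH or WST-1) get 0; others get +1 for less and -1 for more cisplatin killing; genes are active when the two siRNAs give the same sign, summing to ±2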
Calls: active = both siRNAs shift cisplatin killing the same way; inactive = no consistent shift, or siRNA harmful alone
Here is a random part of about 23,000 reagents. 455 of all reagents (2%) were called active. 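Active includes both protection and sensitisation; some change values fall well beyond the stated -50 to +50 range.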 The numbers tell different reagents against one gene apart. Not all columns of the deposit are shown. No sequences are given here. Not stated in the record: the amount of reagent.

gene knocked down	reagent	two-siRNA summed score (-2 to +2)	Call
PADI4	1	0	inactive
E2F6P4	1	0	inactive
BCL9	1	1	inactive
KLC3	1	0	inactive
KLC3	2	1	inactive
LOC440302	1	0	inactive
LOC441254	1	0	inactive
DSC2	1	2	active
GGT1	1	0	inactive
CHIT1	1	-1	inactive
SPON1	1	1	inactive
ACAT2	1	-1	inactive
MTHFS	1	0	inactive
KCTD13	1	0	inactive
RAB10	1	0	inactive
LOC400121	1	1	inactive
SMCO4	1	0	inactive
RNF5	1	0	inactive
NT5C3A	1	0	inactive
WASHC2A	1	0	inactive
SACK1D	1	0	inactive
RUFY3	1	0	inactive
CYSRT1	1	0	inactive
LOC441632	1	1	inactive
IGFALS	1	0	inactive
ACTR1B	1	1	inactive
PRTN3	1	0	inactive
PPM1E	1	0	inactive
LOC441421	1	0	inactive
PHF20	1	0	inactive
FGF10	1	0	inactive
CEP41	1	0	inactive
STK32B	1	1	inactive
LOC341392	1	0	inactive
LRRFIP2	1	0	inactive
LOC401934	1	1	inactive
USP3	1	0	inactive
RDH12	1	1	inactive
NCR1	1	0	inactive
SLC5A11	1	0	inactive
CCDC138	1	0	inactive
TAF1L	1	0	inactive
HPCAL1	1	0	inactive
OGFR	1	0	inactive
UBAC2	1	-1	inactive
LOC401357	1	2	active
LOC442123	1	2	active
KMT2A	1	-1	inactive
KMT2A	2	0	inactive
LRIG3	1	0	inactive
BTN2A1	1	-1	inactive
SLCO5A1	1	0	inactive
NRSN2	1	0	inactive
LCLAT1	1	0	inactive
NXNL1	1	-1	inactive
KIAA1679	1	0	inactive
RAD51D	1	0	inactive
